Source: publication PMC5072591
No constants are given. Whether binding was seen depends on the method and setting.

Target: Fertilization Independent Endosperm 2 (OsFIE2) (rice (Oryza sativa))
Assay: two-hybrid; yeast two-hybrid (Clontech); bait in pGBKT9, prey in pGADT7, reciprocal constructs also made; control media -LT, selective media -LTHA plus X-alpha-gal

B1: OsCLF (protein, UniProt Q5VN06 1-896)
chain: MAGDSRNEPMFCEEGSSESGYVLCVIDSLKKKITSDRFVYIQKRVEENSIKLSPITLHSHNLSKNRQTSTSNSTDLVSNLLTKRKEDALCAVNSRESSPDESEGANCQDECSSTVIVGGNLSARNSVRPIRLPEVATLPPYTTWIFLDRNQRMQEDQSVLGRRRIYYDTNCGEALICSDSEDEAVEDEEEKKEFKDSEDCIIRMTIQECGMSDAVLETLARDIERAPDDIKARYEILQGEKPEGSSKKVSELNVKMEDVYGDKDLDAALDSFDNLFCRRCLVFDCKLHGCSQDLVFPTEKQAPLCSSDEGTPCGIHCYKLVSKPDAIMEIDSHLLVDVEEPTSDNLKDQIGSNKKKLGSSGQKTKSQQSESSSTARVSSESSESEVQLLSNKSPQHSPGLSKNKLGAKGGIKKSTNRRIAERILMSVKKGQQEMSPDSNSIVNGCHWPRDMKLRSDTRSGIKDSVVSSQCNSPSTRSFRKKGTLQMENNSSFVDAQSDSMEDTNNEHSATDGCDSSRKEECVDESICRQEAHGRSWKVIEQGLLLKGLEIFGKNSCLIARNLLGGMKTCTDVFQYMNYIENSSASGALSGVDSLVKGYMKGNELRTRSRFVRRRGRVRRLKYTWKTAGYHFIRKRITERKDQPCRQYTPCGCQSACGKQCPCLTNGTCCEKYCGCPKMCKNRFRGCHCAKSQCRSRQCPCFAADRECDPDVCRNCWVGCGDGTLGVPNQRGDNYECRNMKLLLKQQQRVLLGRSDVSGWGAFLKNSVGKHEYLGEYTGELISHKEADKRGKIYDRENSSFLFNLNNEYVLDAYRMGDKLKFANHSPDPNCYAKVIMVAGDHRVGIFAKERISAGEELFYDYRYEPDRAPAWARKPEGPGAKDDAQPSTGRAKKLAH
In the case of B1, the binding is reported as “no binding”.
